Measured values reported in patent EP3727588B1, “ACTIVATOR PEPTIDES OF THE ENZYME ADAM 10 AND RELATED USES IN THE TREATMENT OF ALZHEIMER'S DISEASE” (UNIVERSITA' DEGLI STUDI DI MILANO, priority 2017, dated 2019).
Results are given in words; binding and its absence hold for the method and conditions named. Binding seen in cells or lysates may run through a third protein. Some results given as binding are weak or reduced against the parent protein; the word gives no strength.

Sequences of proteins named here, by UniProt entry; tags and fusion partners are left off. Residues count along the entry.
UniProt Q811D0: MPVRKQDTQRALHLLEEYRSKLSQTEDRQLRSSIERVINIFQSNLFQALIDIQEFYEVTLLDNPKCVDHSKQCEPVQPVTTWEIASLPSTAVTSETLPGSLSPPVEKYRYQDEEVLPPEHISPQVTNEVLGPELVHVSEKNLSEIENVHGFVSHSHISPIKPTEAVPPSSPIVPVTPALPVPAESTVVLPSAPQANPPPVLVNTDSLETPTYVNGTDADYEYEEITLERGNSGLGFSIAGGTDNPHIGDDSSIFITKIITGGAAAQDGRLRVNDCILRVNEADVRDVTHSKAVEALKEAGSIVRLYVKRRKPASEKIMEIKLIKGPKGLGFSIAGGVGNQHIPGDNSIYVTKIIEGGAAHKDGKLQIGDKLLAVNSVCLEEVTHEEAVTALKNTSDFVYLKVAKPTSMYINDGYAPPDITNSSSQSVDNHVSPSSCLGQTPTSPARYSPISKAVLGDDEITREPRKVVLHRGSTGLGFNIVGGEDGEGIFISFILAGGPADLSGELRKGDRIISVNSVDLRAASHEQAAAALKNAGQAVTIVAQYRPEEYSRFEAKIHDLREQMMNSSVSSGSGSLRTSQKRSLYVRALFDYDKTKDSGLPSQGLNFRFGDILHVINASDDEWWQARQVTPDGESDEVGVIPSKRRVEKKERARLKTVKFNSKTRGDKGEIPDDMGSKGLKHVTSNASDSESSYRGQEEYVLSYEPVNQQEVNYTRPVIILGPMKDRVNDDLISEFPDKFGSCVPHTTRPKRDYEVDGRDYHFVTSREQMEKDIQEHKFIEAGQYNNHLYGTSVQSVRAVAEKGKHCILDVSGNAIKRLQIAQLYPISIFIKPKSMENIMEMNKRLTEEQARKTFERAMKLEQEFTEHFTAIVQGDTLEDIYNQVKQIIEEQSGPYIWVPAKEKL
UniProt P84091: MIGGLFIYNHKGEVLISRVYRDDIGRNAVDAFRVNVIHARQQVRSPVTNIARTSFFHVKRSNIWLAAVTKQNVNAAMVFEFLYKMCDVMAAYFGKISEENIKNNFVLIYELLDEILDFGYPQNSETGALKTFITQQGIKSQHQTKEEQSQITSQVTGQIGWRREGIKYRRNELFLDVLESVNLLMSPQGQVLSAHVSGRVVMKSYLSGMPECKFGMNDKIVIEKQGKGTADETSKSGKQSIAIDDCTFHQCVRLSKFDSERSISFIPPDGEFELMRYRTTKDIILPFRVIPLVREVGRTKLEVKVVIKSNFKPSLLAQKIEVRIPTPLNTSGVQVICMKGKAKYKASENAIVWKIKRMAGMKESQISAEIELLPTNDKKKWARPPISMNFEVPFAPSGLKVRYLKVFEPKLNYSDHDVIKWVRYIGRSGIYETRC
UniProt O35598, residues 215-749: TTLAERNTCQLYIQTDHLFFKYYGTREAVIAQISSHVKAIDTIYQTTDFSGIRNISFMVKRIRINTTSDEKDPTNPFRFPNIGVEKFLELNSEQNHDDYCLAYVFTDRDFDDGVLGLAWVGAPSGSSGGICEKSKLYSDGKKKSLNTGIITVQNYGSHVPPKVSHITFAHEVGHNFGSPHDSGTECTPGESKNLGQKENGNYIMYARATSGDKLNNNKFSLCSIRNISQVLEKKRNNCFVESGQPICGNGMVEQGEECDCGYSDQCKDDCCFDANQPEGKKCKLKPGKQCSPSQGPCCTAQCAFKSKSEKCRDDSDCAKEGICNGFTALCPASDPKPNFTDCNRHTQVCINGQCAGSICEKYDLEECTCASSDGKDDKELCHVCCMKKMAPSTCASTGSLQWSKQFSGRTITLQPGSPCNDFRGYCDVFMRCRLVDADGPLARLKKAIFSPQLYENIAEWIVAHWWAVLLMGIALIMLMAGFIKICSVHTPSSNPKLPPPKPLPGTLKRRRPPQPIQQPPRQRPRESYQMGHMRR
UniProt P12023, residues 18-770: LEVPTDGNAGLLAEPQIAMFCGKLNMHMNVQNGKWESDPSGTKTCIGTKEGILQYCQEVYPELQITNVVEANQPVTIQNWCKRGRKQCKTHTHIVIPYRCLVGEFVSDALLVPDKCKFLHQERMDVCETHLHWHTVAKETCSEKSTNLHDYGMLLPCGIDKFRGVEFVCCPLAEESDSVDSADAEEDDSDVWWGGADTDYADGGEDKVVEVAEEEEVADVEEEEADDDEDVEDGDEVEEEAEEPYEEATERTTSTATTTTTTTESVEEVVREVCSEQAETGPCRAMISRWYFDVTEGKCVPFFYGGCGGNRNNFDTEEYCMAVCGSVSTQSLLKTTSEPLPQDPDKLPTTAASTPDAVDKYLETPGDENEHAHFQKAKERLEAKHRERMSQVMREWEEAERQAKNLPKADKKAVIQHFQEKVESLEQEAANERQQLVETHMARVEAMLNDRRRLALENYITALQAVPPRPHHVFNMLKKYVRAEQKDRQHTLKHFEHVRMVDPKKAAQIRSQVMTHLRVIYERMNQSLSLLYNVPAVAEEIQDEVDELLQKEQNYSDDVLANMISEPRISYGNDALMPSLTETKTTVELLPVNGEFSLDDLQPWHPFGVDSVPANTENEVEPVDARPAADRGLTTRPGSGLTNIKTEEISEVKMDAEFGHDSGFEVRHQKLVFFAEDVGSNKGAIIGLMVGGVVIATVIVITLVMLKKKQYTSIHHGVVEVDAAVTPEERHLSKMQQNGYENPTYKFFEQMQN

Experiments:
[1] = target: SAP97 (mouse) (mouse) (UniProt Q811D0); assay: co-IP with anti-ADAM10, SAP97 blot; mouse brain homogenate
[2] = target: µ2 subunit of AP2 (mouse) (mouse) (UniProt P84091); assay: co-IP with anti-APP antibody; mouse brain homogenate

| binding [1] | binding [2] | Substance |
| --- | --- | --- |
| binds |  | ADAM10 (mouse) (from UniProt O35598 215-749) (enzyme) |
|  | binds | APP (mouse) (from UniProt P12023 18-770) |
